We go through 4 sequences from publication PMC4092027.

Negatives hold for the conditions tested. Tags and fusion partners may be left off the protein sequences shown.

The data set concerns T1, PfsR (Synechocystis sp. PCC 6803).
T1 sequence (looked up): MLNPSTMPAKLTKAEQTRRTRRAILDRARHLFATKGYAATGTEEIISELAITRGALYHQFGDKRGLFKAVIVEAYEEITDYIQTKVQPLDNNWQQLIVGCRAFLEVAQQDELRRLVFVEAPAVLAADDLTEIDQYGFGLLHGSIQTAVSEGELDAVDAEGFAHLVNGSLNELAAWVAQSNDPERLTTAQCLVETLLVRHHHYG
In words: EMSA. Conditions: 2 uM PfsR, 0.05 uM DNA; 4 mM Tris-HCl pH 7.5, 12 mM HEPES pH 7.5, 50 mM NaCl, 10 mM MgCl2, 12% glycerol; 25 C, 30 min; 6% native PAGE in 0.5x TBE; recombinant protein; residues 1-203; protein details: His6 (pQE-70); probe letters rebuilt from the primers and the genome. On the technique in general: Mobility shift assays separate free from complexed probe on a gel.

As to “AGAGTCTTCTATGGAAAGGCGGGCAACGGGAGAAAATTGGGCGACTGTCATAGGAACCAGGGGCAAAAAAGCAGCAACAATAGTGGGAGGACTGATCCCGTTTAAAACTCAGACCTGATTCAGATCTAAACTGTTTAAAGCAAGTATTTAAACGGTACTTTAAATAAGAATTATTTGCAAGAGTTAAGGTTAACATATGATTTCAGCCGACCTCAATCCCCACTCTGTCCCTTGGTGGATTCTTGCTCCCCAGGGCACTGAAGCTCAGGCGATCGCCAAGGGGTTGGGAAAAACTGACCAGATATATTTGCAGGCGATGCCAGTGGGGGCCACAGCGGTGCAATCTTTTTTGGCAAATCTGGCCCAAACCTGGGCGAAAAGTGAAAAGCCCCAAGGTTTATTGGTGATGGGGGTGACTGGGAGTTTATCTGCTGATTACGGCATTGGCCAGGCCCTTTGGGTAGAGCAATGTCAATATTGGGAGAGTGGGAACCATGGTCA (double strand) [futC promoter 500 bp]”, the binding result was “no binding”. The result for “ATTAAGCAATACCTTGGGAGGAGAGGGGAGAACGGTCAAAAAATTAAACACGGCAAATCAAACACAGGGGCAAAGCAAATTCTTCCGGGTCAGGAACACTAGGCCGTAACAGGGAAAATTAACTGCTGGGGGGATCAGTGGGTTTAAACGGGTCTCCCCCAATGCCCAATTCCTTTTTGCTTTCCTTAAGACTCTTCCAAAGTTGCTTAATGCGCTCGTAAGCTTCCATCGTCTCGATTTTACCCGCTGTCTCTAGGTTACAAATAACGCTCACCTTTTGGGCAAATTCTTGCAAATTTGCGTTGAAAACCAGCTTCTCCGGTTTGAAATCCCCATAATATTTGCTTTTGGGATACAGAAATGCGTCTTTTTCCGGATTATCAGTCATATCATCTCTTCGACGGACAAGAACAGTACCCATTGTAAAGGTATTGACCGTTTTCCGGGGTTGACCGAAGGCAAAGGTATGCTTAATTGAGACCAGATAATGCCAAGGGAACT (double strand) [futB promoter 500 bp]” reads “no binding”. To “CACATCTGGACGACTGGACTGGACTGACCCCCTTTGGCAATGACTCACCATCTCCGCCCTACTCTCCTAAGGTAATCTGCACCAATTGGGCTTCACTACGGCGCATGGCCACTTCGGTGGTGCTACCAATGCGGAGGTGGAGTGGTCCCCCCAAACCAGCCTTGCGGAGCAATTGAATTGGTTTATCAGGAATTATTCCCATTGCTTCTAGGCGATTAACTAACCCCTGACCGTGGTTTCCTAGTAAAATTTTCTCCACAAAAGCCAACTGACCCACCGATAAATCCAATAACGTCATGGTTTTCCCAAAACTGCAAATAATTCTCAACTATTAAGTTAGCATTATCTGTTCAGAATAAATATCAAAAATCACTGGAATAATTGTGAGTATAATCACTTACCATTGATTAAATTCCATGCAACCTATGGAAAAGTCCTGCCCAAGACAGATGCTGGGAGCATTGCTGTAGATCGCCAAAAATCTCCGCAACTATTTGGGAC (double strand) [feoB promoter 500 bp]” belongs “no binding”; to “TGACATAATTCCGGTGGCTAAAAATCTGATTGGTGGTTAGAGGCCCCAACCTCCAGTTCCACTGACCATGGTTCACAAATCTTCCCTCTGTTACGCCAGGGGGATTTTATTTGTCCAGGTTACTATTAATAATAAATTTTGTTAGTGAGTAGAGATTTCCATCAGCTAGAGCTATGACAACCCAGGGTAAAGGGGAGTATTACCAAAGTTGAGACTCGGCTAAATTTTTCTTCCTAATCCTTGAAAGTCAAGCAGTATAAACTTTTAAGATCCTTTGCGCCCAATCAGAAAGATTTTTTCCTCAGGTTTTACGAGCAAAATAATAAGATTTATTTATGTCGTTTGGTTGAAGACCTAATTAAATAATCAGAAAATTACTCATTATATCTCCACTGCTGATAAAATTATTGAGAATTACTTTTATTAGAGGAGTGAAAAAGTTCAGCCACCATGGTCCAAAAGTTATCCCGTCGCCTATTTTTGTCCATTGGAACCGCCTTC (double strand) [futA1 promoter 500 bp]”, “no binding”.
